Experimental data: the M2OR odorant receptor database
The entries are a selection whose mix differs from that of the whole data set. The calls were merged from several studies; some rest on single wells. This is one part of the list.

How the values were obtained:
Details in all cases: stereoisomer not certain
O10G3 = system: T1, O10G3
T1 sequence (whole entry): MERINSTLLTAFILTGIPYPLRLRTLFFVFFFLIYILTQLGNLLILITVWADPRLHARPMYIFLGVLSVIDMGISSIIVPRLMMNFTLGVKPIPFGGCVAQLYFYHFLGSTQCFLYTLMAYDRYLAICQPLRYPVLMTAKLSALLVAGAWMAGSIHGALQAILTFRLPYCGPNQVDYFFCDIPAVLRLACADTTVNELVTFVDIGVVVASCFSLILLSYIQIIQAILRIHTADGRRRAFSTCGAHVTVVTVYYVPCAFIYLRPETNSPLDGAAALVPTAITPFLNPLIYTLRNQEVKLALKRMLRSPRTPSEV
Summary of the method: (§1)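 Transient luciferase assays in mammalian cell lines were common, though methods varied by source. The values come from published papers and their supplementary material, with extra details from the original authors when needed. Responsive refers to a measured signal the original authors judged statistically different from baseline, and non-responsive (inactive) to the remainder.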

O10G4 = system: T2, O10G4
T2 sequence (whole entry): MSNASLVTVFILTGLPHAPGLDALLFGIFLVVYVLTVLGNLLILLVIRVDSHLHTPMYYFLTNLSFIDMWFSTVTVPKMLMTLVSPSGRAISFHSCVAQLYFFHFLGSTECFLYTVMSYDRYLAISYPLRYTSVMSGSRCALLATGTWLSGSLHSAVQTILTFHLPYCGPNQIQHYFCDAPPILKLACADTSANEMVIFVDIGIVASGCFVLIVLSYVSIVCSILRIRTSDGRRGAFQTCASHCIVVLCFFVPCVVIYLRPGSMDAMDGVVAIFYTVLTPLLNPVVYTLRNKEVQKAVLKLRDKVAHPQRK
Summary of the method: as §1

O10G9 = system: T3, O10G9
T3 sequence (whole entry): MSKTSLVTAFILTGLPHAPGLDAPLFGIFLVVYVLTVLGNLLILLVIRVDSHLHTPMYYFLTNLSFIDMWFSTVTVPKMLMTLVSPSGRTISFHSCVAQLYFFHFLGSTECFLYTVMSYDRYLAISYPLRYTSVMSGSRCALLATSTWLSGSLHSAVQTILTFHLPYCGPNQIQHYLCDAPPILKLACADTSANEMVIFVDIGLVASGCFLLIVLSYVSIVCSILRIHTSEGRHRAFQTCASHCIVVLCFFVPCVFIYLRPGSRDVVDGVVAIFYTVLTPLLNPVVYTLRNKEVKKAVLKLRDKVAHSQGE
Summary of the method: as §1

O10H2 = system: T4, O10H2
T4 sequence (whole entry): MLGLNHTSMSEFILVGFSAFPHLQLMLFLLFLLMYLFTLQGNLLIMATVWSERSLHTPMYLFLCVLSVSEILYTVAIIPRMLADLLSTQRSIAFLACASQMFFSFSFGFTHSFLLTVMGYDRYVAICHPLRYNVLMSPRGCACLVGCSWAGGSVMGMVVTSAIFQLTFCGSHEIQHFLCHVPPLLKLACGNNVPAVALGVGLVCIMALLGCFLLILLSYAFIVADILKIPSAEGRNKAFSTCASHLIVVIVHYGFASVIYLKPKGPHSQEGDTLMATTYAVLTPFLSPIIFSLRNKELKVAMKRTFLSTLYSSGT
Summary of the method: as §1

O10H5 = system: T5, O10H5
T5 sequence (whole entry): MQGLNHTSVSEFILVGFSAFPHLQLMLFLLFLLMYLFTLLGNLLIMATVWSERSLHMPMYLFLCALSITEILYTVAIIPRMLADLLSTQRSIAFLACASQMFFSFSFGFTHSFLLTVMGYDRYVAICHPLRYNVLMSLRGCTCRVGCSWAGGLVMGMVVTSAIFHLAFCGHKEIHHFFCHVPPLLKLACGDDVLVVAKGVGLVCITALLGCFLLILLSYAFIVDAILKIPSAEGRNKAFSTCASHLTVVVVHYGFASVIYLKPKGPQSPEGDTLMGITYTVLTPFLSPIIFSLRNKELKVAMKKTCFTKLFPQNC
Summary of the method: as §1

O10J1 = system: T6, O10J1
T6 sequence (whole entry): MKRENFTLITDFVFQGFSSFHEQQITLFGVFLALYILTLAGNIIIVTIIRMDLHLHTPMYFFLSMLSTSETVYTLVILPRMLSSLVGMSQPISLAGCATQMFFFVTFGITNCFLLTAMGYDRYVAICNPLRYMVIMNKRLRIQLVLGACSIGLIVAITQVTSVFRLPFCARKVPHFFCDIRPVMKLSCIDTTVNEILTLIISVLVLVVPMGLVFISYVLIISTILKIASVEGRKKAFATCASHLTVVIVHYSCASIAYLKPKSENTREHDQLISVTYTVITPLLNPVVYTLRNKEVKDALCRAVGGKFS
Summary of the method: as §1
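Note: active if original authors judged signal statistically different from baseline.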

Compound | odorant receptor agonist call (O10G3) | odorant receptor agonist call (O10G4) | odorant receptor agonist call (O10G9) | odorant receptor agonist call (O10H2) | odorant receptor agonist call (O10H5) | odorant receptor agonist call (O10J1)
CC=Cc1ccc(O)c(OC)c1 | active | active | active | inactive | inactive | inactive
CC12CCC(CC1)C(C)(C)O2 | inactive | inactive | inactive | inactive | inactive | inactive
CCCCCCCCCC=O | inactive | inactive | inactive | inactive | inactive | inactive
CC1COCc2cc3c(cc21)C(C)(C)C(C)C3(C)C (configuration not stated) | active | inactive | active | active | active | active
CC(C)C(=O)O | inactive | inactive | inactive | inactive | inactive | inactive
CC(=O)OC(C)(C)C1CC=C(C)CC1 (configuration not stated) | inactive | inactive | inactive | inactive | inactive | inactive
CCC=CCCO | inactive | inactive | inactive | inactive | inactive | inactive
COC(=O)c1ccccc1O | inactive | inactive | inactive | inactive | inactive | inactive
C=CCc1ccc(OC)c(OC)c1 | inactive | active | inactive | inactive | inactive | inactive
CCCCCCCCCCC=O | inactive | inactive | inactive | inactive | inactive | inactive
COc1cc(C)ccc1O | inactive | active | inactive | inactive | inactive | inactive
CCCCCCCCOC(C)=O | inactive | inactive | inactive | inactive | inactive | inactive
